Patent publication US20050129672, “Regulatory sequences that direct gene expression to spinal motor neurons and uses thereof” (published 2005)

Key:
Assay in all cases: EMSA
[1] = tested on: HOXB1 + PBX1; conditions: HP motifs mutated; protein translated in vitro; protein details: pSG5-derived vectors, reticulocyte lysate; label: DIG
[2] = tested on: HOXB3 + PBX1; conditions: HP motifs mutated; protein translated in vitro; protein details: pSG5-derived vectors, reticulocyte lysate; label: DIG
[3] = tested on: HOXC8 + PBX1; conditions: HP motifs mutated; none of the HOX proteins bound with PBX1; protein translated in vitro; protein details: pSG5-derived vectors, reticulocyte lysate; label: …
[4] = tested on: HOXD9 + PBX1; conditions: HP motifs mutated; none of the HOX proteins bound with PBX1; protein translated in vitro; protein details: pSG5-derived vectors, reticulocyte lysate; label: …

Measured: binding result

GTACGTTAGCTCGTGCGTTGACAAAAACGAACGAGCTTTA (double strand) [Hb9 mutant 40 bp probe]
no binding: [1] | [2] | [3] | [4]

The exact form of at least one protein or probe is not confirmed. A negative result means that nothing was seen under these conditions.
